Assay results as given in the supplement of paper PMC4604168 (melanoma cell lines).
Some of the results follow. Repeats are few or missing, and single values can be far off.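 Imaging used 1,536-well plates; nuclei positive for cleaved PARP by antibody were divided by total DNA-stained nuclei to yield the apoptosis fraction. Doses for screening kept most cells viable, and cell lines differ markedly in resting and induced cleaved-PARP levels.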

test system: IPC-298; assay: cleaved PARP positive nuclei fraction relative to DMSO control; melanoma cells; higher = more apoptosis; conditions: library dose: low library concentration; 72 h

| SMILES | cleaved PARP positive nuclei fraction [%] |
| --- | --- |
| C[C@]12O[C@H](C[C@]1(O)CO)n1c3ccccc3c3c4c(c5c6ccccc6n2c5c31)CNC4=O [Lestaurtinib] + COc1ccc(COc2ccc(Cc3cnc(N)nc3N)cc2OC)cc1 [GW2580] (first compound 0.004 µM, partner dose 1 µM) | 46.2 |
| Cn1cc(C2=C(c3cn(C4CCN(Cc5ccccn5)CC4)c4ccccc34)C(=O)NC2=O)c2ccccc21 [Enzastaurin] + N.N.[Cl][Pt][Cl] [cisplatin] (first compound 0.8 µM, partner dose 1.6 µM) | 356 |
| C[As](C)SC[C@H](NC(=O)CC[C@H](N)C(=O)O)C(=O)NCC(=O)O [Darinaparsin] + COc1cc(N2CCC(N3CCN(C)CC3)CC2)ccc1Nc1ncc(Cl)c(Nc2ccccc2S(=O)(=O)C(C)C)n1 [NVP-TAE684] (first compound 0.4 µM, partner dose 0.08 µM) | 84.8 |
| C[C@]12O[C@H](C[C@]1(O)CO)n1c3ccccc3c3c4c(c5c6ccccc6n2c5c31)CNC4=O [Lestaurtinib] + Cn1nnc2c(C(N)=O)ncn2c1=O [temozolomide] (first compound 0.004 µM, partner dose 2 µM) | 94.8 |
| C[As](C)SC[C@H](NC(=O)CC[C@H](N)C(=O)O)C(=O)NCC(=O)O [Darinaparsin] + COc1ccc(Cl)c(Nc2nc3ccccc3nc2NS(=O)(=O)c2cccc(NC(=O)C(C)(C)N)c2)c1 [XL147] (first compound 0.4 µM, partner dose 0.8 µM) | 178 |
| COCC[n+]1c2c(n(Cc3cnccn3)c1C)C(=O)c1ccccc1C2=O + O=C(Oc1ccc([N+](=O)[O-])cc1)N1CCC(C(O)(c2ccc3c(c2)OCO3)c2ccc3c(c2)OCO3)CC1 [JZL184] (first compound 0.0004 µM, partner dose 1 µM) | 55.7 |
| COc1cc([C@@H]2c3cc4c(cc3[C@@H](O[C@@H]3O[C@@H]5CO[C@@H](C)O[C@H]5[C@H](O)[C@H]3O)[C@H]3COC(=O)[C@H]23)OCO4)cc(OC)c1O [etoposide] + C[As](C)SC[C@H](NC(=O)CC[C@H](N)C(=O)O)C(=O)NCC(=O)O [Darinaparsin] (first compound 0.02 µM, partner dose 0.4 µM) | 125 |
| C[As](C)SC[C@H](NC(=O)CC[C@H](N)C(=O)O)C(=O)NCC(=O)O [Darinaparsin] + Oc1cc(-c2nc(-c3ccccc3)[nH]c2-c2ccncc2)ccc1Cl [L779450] (first compound 0.4 µM, partner dose 0.2 µM) | 98.5 |
| N.N.[Cl][Pt][Cl] [cisplatin] + Oc1cc(-c2nc(-c3ccccc3)[nH]c2-c2ccncc2)ccc1Cl [L779450] (first compound 1.6 µM, partner dose 0.2 µM) | 95.1 |
| Cc1nc(Nc2ncc(C(=O)Nc3c(C)cccc3Cl)s2)cc(N2CCN(CCO)CC2)n1 [dasatanib] + O=C(Oc1ccc([N+](=O)[O-])cc1)N1CCC(C(O)(c2ccc3c(c2)OCO3)c2ccc3c(c2)OCO3)CC1 [JZL184] (first compound 0.004 µM, partner dose 1 µM) | 252 |
| CC(=O)O[C@@]12CO[C@@H]1C[C@H](O)[C@@]1(C)C(=O)[C@H](O)C3=C(C)[C@@H](OC(=O)[C@H](O)[C@@H](NC(=O)OC(C)(C)C)c4ccccc4)C[C@@](O)([C@@H](OC(=O)c4ccccc4)[C@H]21)C3(C)C [Docetaxel] + C/C(O)=C(\C#N)C(=O)Nc1cc(Br)ccc1Br [LFM-A13] (first compound 0.0001 µM, partner dose 2 µM) | 56.8 |
| C[C@]12O[C@H](C[C@]1(O)CO)n1c3ccccc3c3c4c(c5c6ccccc6n2c5c31)CNC4=O [Lestaurtinib] + Cc1nc(Nc2ncc(C(=O)Nc3c(C)cccc3Cl)s2)cc(N2CCN(CCO)CC2)n1 [dasatanib] (first compound 0.004 µM, partner dose 0.004 µM) | 246 |
| C[C@]12O[C@H](C[C@]1(O)CO)n1c3ccccc3c3c4c(c5c6ccccc6n2c5c31)CNC4=O [Lestaurtinib] + CCc1ccc(CCOc2ccc(CC3SC(=O)NC3=O)cc2)nc1 [pioglitazone] (first compound 0.004 µM, partner dose 2 µM) | 62.3 |

Rewritten tab-delimited: entries from further up
SMILES	cleaved PARP positive nuclei fraction [%]
Cn1cc(C2=C(c3cn(C4CCN(Cc5ccccn5)CC4)c4ccccc34)C(=O)NC2=O)c2ccccc21 [Enzastaurin] + N.N.[Cl][Pt][Cl] [cisplatin] (first compound 0.8 µM, partner dose 1.6 µM)	356
Cc1nc(Nc2ncc(C(=O)Nc3c(C)cccc3Cl)s2)cc(N2CCN(CCO)CC2)n1 [dasatanib] + O=C(Oc1ccc([N+](=O)[O-])cc1)N1CCC(C(O)(c2ccc3c(c2)OCO3)c2ccc3c(c2)OCO3)CC1 [JZL184] (first compound 0.004 µM, partner dose 1 µM)	252
CC(=O)O[C@@]12CO[C@@H]1C[C@H](O)[C@@]1(C)C(=O)[C@H](O)C3=C(C)[C@@H](OC(=O)[C@H](O)[C@@H](NC(=O)OC(C)(C)C)c4ccccc4)C[C@@](O)([C@@H](OC(=O)c4ccccc4)[C@H]21)C3(C)C [Docetaxel] + C/C(O)=C(\C#N)C(=O)Nc1cc(Br)ccc1Br [LFM-A13] (first compound 0.0001 µM, partner dose 2 µM)	56.8
